Source: publication PMC10546721
No constants are given. Whether binding was seen depends on the method and setting. Binding seen in cells or lysates may run through a third protein. Here binding means that the protein was enriched with, or labelled near, the bait; the list need not be complete. Where a sequence is shown, tags or fusion partners need not be part of it.

Chains of the proteins cited; added tags and fusions are not shown. Residues count along the entry.
UniProt O00206, residues 24-839: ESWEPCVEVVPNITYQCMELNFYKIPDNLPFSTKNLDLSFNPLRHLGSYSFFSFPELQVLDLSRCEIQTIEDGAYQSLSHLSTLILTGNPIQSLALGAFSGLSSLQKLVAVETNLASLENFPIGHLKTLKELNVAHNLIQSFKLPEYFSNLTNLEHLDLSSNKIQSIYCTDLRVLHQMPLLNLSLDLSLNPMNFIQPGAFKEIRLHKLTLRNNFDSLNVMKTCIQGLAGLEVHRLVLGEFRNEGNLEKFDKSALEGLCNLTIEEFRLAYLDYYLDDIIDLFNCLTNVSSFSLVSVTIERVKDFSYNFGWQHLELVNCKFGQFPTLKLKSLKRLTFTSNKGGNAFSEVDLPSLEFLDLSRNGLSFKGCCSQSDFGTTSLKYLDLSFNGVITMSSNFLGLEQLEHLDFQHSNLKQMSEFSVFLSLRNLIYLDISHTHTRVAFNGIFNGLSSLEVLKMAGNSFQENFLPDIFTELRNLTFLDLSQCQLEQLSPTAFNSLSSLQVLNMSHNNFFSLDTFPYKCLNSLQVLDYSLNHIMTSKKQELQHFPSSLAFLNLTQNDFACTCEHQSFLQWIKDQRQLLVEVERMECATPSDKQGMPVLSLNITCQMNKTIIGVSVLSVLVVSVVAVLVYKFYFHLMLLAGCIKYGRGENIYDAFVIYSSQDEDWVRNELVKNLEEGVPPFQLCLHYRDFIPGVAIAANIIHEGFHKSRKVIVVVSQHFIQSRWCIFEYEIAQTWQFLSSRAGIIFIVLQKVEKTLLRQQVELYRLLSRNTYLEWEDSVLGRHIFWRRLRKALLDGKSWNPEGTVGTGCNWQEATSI

Target: T1, lipopolysaccharide binding protein (LBP) fused with 3X-FLAG (human) (UniProt P18428)
T1 sequence: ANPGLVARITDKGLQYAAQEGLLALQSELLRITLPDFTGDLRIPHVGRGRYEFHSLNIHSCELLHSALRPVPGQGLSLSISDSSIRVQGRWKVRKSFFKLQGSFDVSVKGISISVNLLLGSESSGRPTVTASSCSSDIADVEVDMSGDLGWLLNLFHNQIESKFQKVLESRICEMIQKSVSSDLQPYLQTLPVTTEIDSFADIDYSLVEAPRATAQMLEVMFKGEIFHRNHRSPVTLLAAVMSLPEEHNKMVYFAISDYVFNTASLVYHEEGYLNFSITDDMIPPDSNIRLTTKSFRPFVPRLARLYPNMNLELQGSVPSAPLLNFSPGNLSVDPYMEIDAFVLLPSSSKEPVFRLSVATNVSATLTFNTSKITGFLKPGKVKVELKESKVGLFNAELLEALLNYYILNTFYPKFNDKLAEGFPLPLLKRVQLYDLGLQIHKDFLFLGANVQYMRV
Test: affinity purification with mass spectrometry; anti-FLAG M2 Affinity Gel immunoprecipitation of LBP-3X-FLAG in PMA-treated THP-1 cells; eluate on Bolt 10% Bis-Tris gel, silver stain, mass spectrometry

Question: For “TLR4 (endogenous in PMA-treated THP-1 cells) (from UniProt O00206 24-839) (receptor)”, which binding is on record?
Answer: The binding was “binds”.
